Source: paper PMC7372886

Amino acid sequences for entries named in this document (tags omitted).
UniProt P49327: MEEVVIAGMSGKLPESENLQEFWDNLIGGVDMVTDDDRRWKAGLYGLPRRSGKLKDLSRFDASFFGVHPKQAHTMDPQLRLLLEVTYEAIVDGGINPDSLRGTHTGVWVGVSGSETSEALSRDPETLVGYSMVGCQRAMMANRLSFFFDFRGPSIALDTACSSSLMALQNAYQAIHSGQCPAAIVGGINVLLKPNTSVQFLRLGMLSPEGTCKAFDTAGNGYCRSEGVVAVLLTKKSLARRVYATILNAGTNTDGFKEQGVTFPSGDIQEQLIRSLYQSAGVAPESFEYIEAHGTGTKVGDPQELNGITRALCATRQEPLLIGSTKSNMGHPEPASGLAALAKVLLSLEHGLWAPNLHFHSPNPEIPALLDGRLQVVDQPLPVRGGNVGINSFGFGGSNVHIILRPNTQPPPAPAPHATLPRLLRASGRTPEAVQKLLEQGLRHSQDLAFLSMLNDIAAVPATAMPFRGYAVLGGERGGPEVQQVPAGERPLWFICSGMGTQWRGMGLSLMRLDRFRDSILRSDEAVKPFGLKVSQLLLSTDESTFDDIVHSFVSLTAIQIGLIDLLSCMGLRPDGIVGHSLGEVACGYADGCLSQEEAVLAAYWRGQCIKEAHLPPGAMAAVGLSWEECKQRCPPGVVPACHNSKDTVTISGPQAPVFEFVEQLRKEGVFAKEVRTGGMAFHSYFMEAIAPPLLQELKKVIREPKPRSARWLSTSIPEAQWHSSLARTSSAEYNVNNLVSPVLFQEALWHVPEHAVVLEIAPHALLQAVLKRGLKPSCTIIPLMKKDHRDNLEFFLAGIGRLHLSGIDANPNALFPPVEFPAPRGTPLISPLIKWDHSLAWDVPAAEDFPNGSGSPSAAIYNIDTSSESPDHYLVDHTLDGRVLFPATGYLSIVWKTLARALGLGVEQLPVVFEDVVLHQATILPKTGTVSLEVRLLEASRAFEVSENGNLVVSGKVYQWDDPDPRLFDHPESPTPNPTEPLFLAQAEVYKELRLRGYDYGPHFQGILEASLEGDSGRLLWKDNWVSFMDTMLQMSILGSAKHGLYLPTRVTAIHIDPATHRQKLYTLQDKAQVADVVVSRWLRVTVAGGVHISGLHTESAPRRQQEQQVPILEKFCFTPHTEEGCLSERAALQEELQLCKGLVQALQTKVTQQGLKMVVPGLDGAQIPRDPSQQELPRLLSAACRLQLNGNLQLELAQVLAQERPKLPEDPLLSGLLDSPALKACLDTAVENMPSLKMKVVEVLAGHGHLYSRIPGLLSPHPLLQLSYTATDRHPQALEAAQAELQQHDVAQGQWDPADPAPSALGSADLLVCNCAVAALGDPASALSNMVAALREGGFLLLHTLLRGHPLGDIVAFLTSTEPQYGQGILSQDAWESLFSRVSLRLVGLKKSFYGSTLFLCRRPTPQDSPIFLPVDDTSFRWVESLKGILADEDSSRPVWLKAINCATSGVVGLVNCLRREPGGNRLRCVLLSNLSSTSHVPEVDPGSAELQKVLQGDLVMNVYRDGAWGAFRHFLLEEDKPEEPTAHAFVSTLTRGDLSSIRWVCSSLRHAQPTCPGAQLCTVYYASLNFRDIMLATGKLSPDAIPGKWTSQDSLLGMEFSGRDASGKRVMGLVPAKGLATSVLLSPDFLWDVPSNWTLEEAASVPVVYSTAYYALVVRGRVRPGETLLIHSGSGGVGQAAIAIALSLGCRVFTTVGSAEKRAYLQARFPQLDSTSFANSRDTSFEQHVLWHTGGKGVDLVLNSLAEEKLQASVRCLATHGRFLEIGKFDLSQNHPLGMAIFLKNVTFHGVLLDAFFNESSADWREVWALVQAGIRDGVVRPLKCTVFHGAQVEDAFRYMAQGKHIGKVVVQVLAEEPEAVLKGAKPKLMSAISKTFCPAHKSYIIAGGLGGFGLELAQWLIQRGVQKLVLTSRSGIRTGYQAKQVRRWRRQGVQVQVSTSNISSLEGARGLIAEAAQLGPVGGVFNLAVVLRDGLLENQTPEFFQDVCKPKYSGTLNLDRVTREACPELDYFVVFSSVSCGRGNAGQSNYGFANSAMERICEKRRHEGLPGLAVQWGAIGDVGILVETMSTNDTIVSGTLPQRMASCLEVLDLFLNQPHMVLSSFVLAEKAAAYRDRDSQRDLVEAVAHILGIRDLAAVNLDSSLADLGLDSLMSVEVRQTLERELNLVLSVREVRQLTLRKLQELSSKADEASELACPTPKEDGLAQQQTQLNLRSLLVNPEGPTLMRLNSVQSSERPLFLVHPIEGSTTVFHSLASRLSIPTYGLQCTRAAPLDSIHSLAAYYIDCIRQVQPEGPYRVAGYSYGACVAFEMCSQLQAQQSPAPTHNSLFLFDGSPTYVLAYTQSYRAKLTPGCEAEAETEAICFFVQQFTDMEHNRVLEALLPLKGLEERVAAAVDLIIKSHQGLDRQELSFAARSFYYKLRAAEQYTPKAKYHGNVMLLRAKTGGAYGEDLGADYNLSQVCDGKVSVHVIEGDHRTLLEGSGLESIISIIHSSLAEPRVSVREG

B1: Mitotic interactor and substrate of PLK1 (protein, UniProt Q8IVT2 1-679)
chain: MDRVTRYPILGIPQAHRGTGLVLDGDTSYTYHLVCMGPEASGWGQDEPQTWPTDHRAQQGVQRQGVSYSVHAYTGQPSPRGLHSENREDEGWQVYRLGARDAHQGRPTWALRPEDGEDKEMKTYRLDAGDADPRRLCDLERERWAVIQGQAVRKSSTVATLQGTPDHGDPRTPGPPRSTPLEENVVDREQIDFLAARQQFLSLEQANKGAPHSSPARGTPAGTTPGASQAPKAFNKPHLANGHVVPIKPQVKGVVREENKVRAVPTWASVQVVDDPGSLASVESPGTPKETPIEREIRLAQEREADLREQRGLRQATDHQELVEIPTRPLLTKLSLITAPRRERGRPSLYVQRDIVQETQREEDHRREGLHVGRASTPDWVSEGPQPGLRRALSSDSILSPAPDARAADPAPEVRKVNRIPPDAYQPYLSPGTPQLEFSAFGAFGKPSSLSTAEAKAATSPKATMSPRHLSESSGKPLSTKQEASKPPRGCPQANRGVVRWEYFRLRPLRFRAPDEPQQAQVPHVWGWEVAGAPALRLQKSQSSDLLERERESVLRREQEVAEERRNALFPEVFSPTPDENSDQNSRSSSQASGITGSYSVSESPFFSPIHLHSNVAWTVEDPVDSAPPGQRKKEQWYAGINPSDGINSEVLEAIRVTRHKNAMAERWESRIYASEEDD
B2: Protein phosphatase 1 regulatory subunit 12B (protein, UniProt O60237 1-982)
chain: MAELEHLGGKRAESARMRRAEQLRRWRGSLTEQEPAERRGAGRQPLTRRGSPRVRFEDGAVFLAACSSGDTDEVRKLLARGADINTVNVDGLTALHQACIDENLDMVKFLVENRANVNQQDNEGWTPLHAAASCGYLNIAEYFINHGASVGIVNSEGEVPSDLAEEPAMKDLLLEQVKKQGVDLEQSRKEEEQQMLQDARQWLNSGKIEDVRQARSGATALHVAAAKGYSEVLRLLIQAGYELNVQDYDGWTPLHAAAHWGVKEACSILAEALCDMDIRNKLGQTPFDVADEGLVEHLELLQKKQNVLRSEKETRNKLIESDLNSKIQSGFFKNKEKMLYEEETPKSQEMEEENKESSSSSSEEEEGEDEASESETEKEADKKPEAFVNHSNSESKSSITEQIPAPAQNTFSASSARRFSSGLFNKPEEPKDESPSSWRLGLRKTGSHNMLSEVANSREPIRDRGSSIYRSSSSPRISALLDNKDKERENKSYISSLAPRKLNSTSDIEEKENRESAVNLVRSGSYTRQLWRDEAKGNEIPQTIAPSTYVSTYLKRTPHKSQADTTAEKTADNVSSSTPLCVITNRPLPSTANGVTATPVLSITGTDSSVEAREKRRSYLTPVRDEEAESLRKARSRQARQTRRSTQGVTLTDLQEAERTFSRSRAERQAQEQPREKPTDTEGLEGSPEKHEPSAVPATEAGEGQQPWGRSLDEEPICHRLRCPAQPDKPTTPASPSTSRPSLYTSSHLLWTNRFSVPDSESSETTTNTTTAKEMDKNENEEADLDEQSSKRLSIRERRRPKERRRGTGINFWTKDEDETDGSEEVKETWHERLSRLESGGSNPTTSDSYGDRASARARREAREARLATLTSRVEEDSNRDYKKLYESALTENQKLKTKLQEAQLELADIKSKLEKVAQQKQEKTSDRSSVLEMEKRERRALERKMSEMEEEMKVLTELKSDNQRLKDENGALIRVISKLSK
B3: EF-hand domain-containing protein D2 (protein, UniProt Q96C19 1-240)
chain: MATDELATKLSRRLQMEGEGGGETPEQPGLNGAAAAAAGAPDEAAEALGSADCELSAKLLRRADLNQGIGEPQSPSRRVFNPYTEFKEFSRKQIKDMEKMFKQYDAGRDGFIDLMELKLMMEKLGAPQTHLGLKNMIKEVDEDFDSKLSFREFLLIFRKAAAGELQEDSGLCVLARLSEIDVSSEGVKGAKSFFEAKVQAINVSSRFEEEIKAEQEERKKQAEEMKQRKAAFKELQSTFK
B4: Treacle protein (protein, UniProt Q13428 1-1488)
chain: MAEARKRRELLPLIYHHLLRAGYVRAAREVKEQSGQKCFLAQPVTLLDIYTHWQQTSELGRKRKAEEDAALQAKKTRVSDPISTSESSEEEEEAEAETAKATPRLASTNSSVLGADLPSSMKEKAKAETEKAGKTGNSMPHPATGKTVANLLSGKSPRKSAEPSANTTLVSETEEEGSVPAFGAAAKPGMVSAGQADSSSEDTSSSSDETDVEGKPSVKPAQVKASSVSTKESPARKAAPAPGKVGDVTPQVKGGALPPAKRAKKPEEESESSEEGSESEEEAPAGTRSQVKASEKILQVRAASAPAKGTPGKGATPAPPGKAGAVASQTKAGKPEEDSESSSEESSDSEEETPAAKALLQAKASGKTSQVGAASAPAKESPRKGAAPAPPGKTGPAVAKAQAGKREEDSQSSSEESDSEEEAPAQAKPSGKAPQVRAASAPAKESPRKGAAPAPPRKTGPAAAQVQVGKQEEDSRSSSEESDSDREALAAMNAAQVKPLGKSPQVKPASTMGMGPLGKGAGPVPPGKVGPATPSAQVGKWEEDSESSSEESSDSSDGEVPTAVAPAQEKSLGNILQAKPTSSPAKGPPQKAGPVAVQVKAEKPMDNSESSEESSDSADSEEAPAAMTAAQAKPALKIPQTKACPKKTNTTASAKVAPVRVGTQAPRKAGTATSPAGSSPAVAGGTQRPAEDSSSSEESDSEEEKTGLAVTVGQAKSVGKGLQVKAASVPVKGSLGQGTAPVLPGKTGPTVTQVKAEKQEDSESSEEESDSEEAAASPAQVKTSVKKTQAKANPAAARAPSAKGTISAPGKVVTAAAQAKQRSPSKVKPPVRNPQNSTVLARGPASVPSVGKAVATAAQAQTGPEEDSGSSEEESDSEEEAETLAQVKPSGKTHQIRAALAPAKESPRKGAAPTPPGKTGPSAAQAGKQDDSGSSSEESDSDGEAPAAVTSAQVIKPPLIFVDPNRSPAGPAATPAQAQAASTPRKARASESTARSSSSESEDEDVIPATQCLTPGIRTNVVTMPTAHPRIAPKASMAGASSSKESSRISDGKKQEGPATQVSKKNPASLPLTQAALKVLAQKASEAQPPVARTQPSSGVDSAVGTLPATSPQSTSVQAKGTNKLRKPKLPEVQQATKAPESSDDSEDSSDSSSGSEEDGEGPQGAKSAHTLGPTPSRTETLVEETAAESSEDDVVAPSQSLLSGYMTPGLTPANSQASKATPKLDSSPSVSSTLAAKDDPDGKQEAKPQQAAGMLSPKTGGKEAASGTTPQKSRKPKKGAGNPQASTLALQSNITQCLLGQPWPLNEAQVQASVVKVLTELLEQERKKVVDTTKESSRKGWESRKRKLSGDQPAARTPRSKKKKKLGAGEGGEASVSPEKTSTTSKGKAKRDKASGDVKEKKGKGSLGSQGAKDEPEEELQKGMGTVEGGDQSNPKSKKEKKKSDKRKKDKEKKEKKKKAKKASTKDSESPSQKKKKKKKKTAEQTV
B5: Signal-induced proliferation-associated protein 1 (protein, UniProt Q96FS4 1-1042)
chain: MPMWAGGVGSPRRGMAPASTDDLFARKLRQPARPPLTPHTFEPRPVRGPLLRSGSDAGEARPPTPASPRARAHSHEEASRPAATSTRLFTDPLALLGLPAEEPEPAFPPVLEPRWFAHYDVQSLLFDWAPRSQGMGSHSEASSGTLASAEDQAASSDLLHGAPGFVCELGGEGELGLGGPASPPVPPALPNAAVSILEEPQNRTSAYSLEHADLGAGYYRKYFYGKEHQNFFGMDESLGPVAVSLRREEKEGSGGGTLHSYRVIVRTTQLRTLRGTISEDALPPGPPRGLSPRKLLEHVAPQLSPSCLRLGSASPKVPRTLLTLDEQVLSFQRKVGILYCRAGQGSEEEMYNNQEAGPAFMQFLTLLGDVVRLKGFESYRAQLDTKTDSTGTHSLYTTYQDHEIMFHVSTMLPYTPNNQQQLLRKRHIGNDIVTIVFQEPGSKPFCPTTIRSHFQHVFLVVRAHTPCTPHTTYRVAVSRTQDTPAFGPALPAGGGPFAANADFRAFLLAKALNGEQAAGHARQFHAMATRTRQQYLQDLATNEVTTTSLDSASRFGLPSLGGRRRAAPRGPGAELQAAGSLVWGVRAAPGARVAAGAQASGPEGIEVPCLLGISAEALVLVAPRDGRVVFNCACRDVLAWTFSEQQLDLYHGRGEAITLRFDGSPGQAVGEVVARLQLVSRGCETRELALPRDGQGRLGFEVDAEGFVTHVERFTFAETAGLRPGARLLRVCGQTLPSLRPEAAAQLLRSAPKVCVTVLPPDESGRPRRSFSELYTLSLQEPSRRGAPDPVQDEVQGVTLLPTTKQLLHLCLQDGGSPPGPGDLAEERTEFLHSQNSLSPRSSLSDEAPVLPNTTPDLLLATTAKPSVPSADSETPLTQDRPGSPSGSEDKGNPAPELRASFLPRTLSLRNSISRIMSEAGSGTLEDEWQAISEIASTCNTILESLSREGQPIPESGDPKGTPKSDAEPEPGNLSEKVSHLESMLRKLQEDLQKEKADRAALEEEVRSLRHNNRRLQAESESAATRLLLASKQLGSPTADLA
B6: Phostensin (protein, UniProt Q6NYC8 1-613)
chain: MATIPDWKLQLLARRRQEEASVRGREKAERERLSQMPAWKRGLLERRRAKLGLSPGEPSPVLGTVEAGPPDPDESAVLLEAIGPVHQNRFIRQERQQQQQQQQRSEELLAERKPGPLEARERRPSPGEMRDQSPKGRESREERLSPRETRERRLGIGGAQELSLRPLEARDWRQSPGEVGDRSSRLSEAWKWRLSPGETPERSLRLAESREQSPRRKEVESRLSPGESAYQKLGLTEAHKWRPDSRESQEQSLVQLEATEWRLRSGEERQDYSEECGRKEEWPVPGVAPKETAELSETLTREAQGNSSAGVEAAEQRPVEDGERGMKPTEGWKWTLNSGKAREWTPRDIEAQTQKPEPPESAEKLLESPGVEAGEGEAEKEEAGAQGRPLRALQNCCSVPSPLPPEDAGTGGLRQQEEEAVELQPPPPAPLSPPPPAPTAPQPPGDPLMSRLFYGVKAGPGVGAPRRSGHTFTVNPRRSVPPATPATPTSPATVDAAVPGAGKKRYPTAEEILVLGGYLRLSRSCLAKGSPERHHKQLKISFSETALETTYQYPSESSVLEELGPEPEVPSAPNPPAAQPDDEEDEEELLLLQPELQGGLRTKALIVDESCRR
B7: Actin filament-associated protein 1 (protein, UniProt Q8N556 1-730)
chain: MEELIVELRLFLELLDHEYLTSTVREKKAVITNILLRIQSSKGFDVKDHAQKQETANSLPAPPQMPLPEIPQPWLPPDSGPPPLPTSSLPEGYYEEAVPLSPGKAPEYITSNYDSDAMSSSYESYDEEEEDGKGKKTRHQWPSEEASMDLVKDAKICAFLLRKKRFGQWTKLLCVIKDTKLLCYKSSKDQQPQMELPLQGCNITYIPKDSKKKKHELKITQQGTDPLVLAVQSKEQAEQWLKVIKEAYSGCSGPVDSECPPPPSSPVHKAELEKKLSSERPSSDGEGVVENGITTCNGKEQVKRKKSSKSEAKGTVSKVTGKKITKIISLGKKKPSTDEQTSSAEEDVPTCGYLNVLSNSRWRERWCRVKDNKLIFHKDRTDLKTHIVSIPLRGCEVIPGLDSKHPLTFRLLRNGQEVAVLEASSSEDMGRWIGILLAETGSSTDPEALHYDYIDVEMSASVIQTAKQTFCFMNRRVISANPYLGGTSNGYAHPSGTALHYDDVPCINGSLKGKKPPVASNGVTGKGKTLSSQPKKADPAAVVKRTGSNAAQYKYGKNRVEADAKRLQTKEEELLKRKEALRNRLAQLRKERKDLRAAIEVNAGRKPQAILEEKLKQLEEECRQKEAERVSLELELTEVKESLKKALAGGVTLGLAIEPKSGTSSPQSPVFRHRTLENSPISSCDTSDTEGPVPVNSAAVLKKSQAAPGSSPCRGHVLRKAKEWELKNGT

Target: Fatty acid synthase (human (endogenous in HepG2 and SMMC7721)) (UniProt P49327)
Assay: affinity purification with mass spectrometry; FASN antibody and Protein A/G agarose beads on whole cell lysates of HepG2 cells transfected with control siRNA or FASN siRNA; eluted proteins iTRAQ-labelled (114, 117 against 118, 121), Nano LC ESI MS/MS

binding, binds:
B1
B2
B3
B4
B5
B6
B7

These are yes or no findings as the source states them, for the method shown. Binding seen in cells or lysates may run through a third protein. These calls come from enrichment with a bait or labelling near it, and not all partners need be listed.
